According to article PMC9537123:
No constants are given. Whether binding was seen depends on the method and setting. In cells and extracts the contact can be indirect. Some entries that bind do so weakly or less than the wild type.

The chains behind the UniProt entries cited, without tags or fusion partners.
UniProt Q08369: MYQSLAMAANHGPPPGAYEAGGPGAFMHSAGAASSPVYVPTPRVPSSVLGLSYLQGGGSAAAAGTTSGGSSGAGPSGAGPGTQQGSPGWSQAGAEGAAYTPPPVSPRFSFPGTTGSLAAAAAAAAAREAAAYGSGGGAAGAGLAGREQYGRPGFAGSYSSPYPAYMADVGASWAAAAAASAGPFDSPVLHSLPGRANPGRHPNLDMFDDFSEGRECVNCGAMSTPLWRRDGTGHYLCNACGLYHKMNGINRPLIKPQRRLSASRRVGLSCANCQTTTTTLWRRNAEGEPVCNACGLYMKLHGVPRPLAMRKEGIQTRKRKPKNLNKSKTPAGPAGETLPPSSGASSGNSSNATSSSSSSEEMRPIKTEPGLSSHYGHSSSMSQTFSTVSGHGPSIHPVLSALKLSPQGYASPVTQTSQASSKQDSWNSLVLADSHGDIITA
UniProt Q00403: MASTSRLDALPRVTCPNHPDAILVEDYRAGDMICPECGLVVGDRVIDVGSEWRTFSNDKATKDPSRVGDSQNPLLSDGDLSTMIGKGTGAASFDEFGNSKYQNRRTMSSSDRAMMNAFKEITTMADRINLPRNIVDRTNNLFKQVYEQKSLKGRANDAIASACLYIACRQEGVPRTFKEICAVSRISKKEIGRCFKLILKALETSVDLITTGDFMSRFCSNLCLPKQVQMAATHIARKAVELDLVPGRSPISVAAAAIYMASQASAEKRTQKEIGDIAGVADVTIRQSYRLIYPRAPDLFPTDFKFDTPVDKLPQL

Target: GATA-4-mCherry fusion protein (mouse) (UniProt Q08369)
Assay: co-IP; nuclear fraction of sorted GFP-h-Muse cells 8 h after incubation with apoptotic GATA-4-mCherry reporter m-HL-1 fragments; anti-mCherry antibody and Dynabeads protein G overnight at 4 °C; washed six times in 10 mM Tris-HCl pH 8.0, 100 mM NaCl, 2 mM EDTA, 0.01% NP-40; Western blot; normal IgG as negative control

Substance: transcription factor II B (from UniProt Q00403 1-316)
- binding: binds
